Data published in PMC10042831.
Results are given in words; binding and its absence hold for the method and conditions named. In cells and extracts the contact can be indirect. Some binding calls cover weakened binding; strength is not graded here.

By UniProt entry, the sequences of proteins in these tests, tags left out. Where a name states a change or a piece, a line headed by the entry shows the natural chain unless it says otherwise.
UniProt Q5S007: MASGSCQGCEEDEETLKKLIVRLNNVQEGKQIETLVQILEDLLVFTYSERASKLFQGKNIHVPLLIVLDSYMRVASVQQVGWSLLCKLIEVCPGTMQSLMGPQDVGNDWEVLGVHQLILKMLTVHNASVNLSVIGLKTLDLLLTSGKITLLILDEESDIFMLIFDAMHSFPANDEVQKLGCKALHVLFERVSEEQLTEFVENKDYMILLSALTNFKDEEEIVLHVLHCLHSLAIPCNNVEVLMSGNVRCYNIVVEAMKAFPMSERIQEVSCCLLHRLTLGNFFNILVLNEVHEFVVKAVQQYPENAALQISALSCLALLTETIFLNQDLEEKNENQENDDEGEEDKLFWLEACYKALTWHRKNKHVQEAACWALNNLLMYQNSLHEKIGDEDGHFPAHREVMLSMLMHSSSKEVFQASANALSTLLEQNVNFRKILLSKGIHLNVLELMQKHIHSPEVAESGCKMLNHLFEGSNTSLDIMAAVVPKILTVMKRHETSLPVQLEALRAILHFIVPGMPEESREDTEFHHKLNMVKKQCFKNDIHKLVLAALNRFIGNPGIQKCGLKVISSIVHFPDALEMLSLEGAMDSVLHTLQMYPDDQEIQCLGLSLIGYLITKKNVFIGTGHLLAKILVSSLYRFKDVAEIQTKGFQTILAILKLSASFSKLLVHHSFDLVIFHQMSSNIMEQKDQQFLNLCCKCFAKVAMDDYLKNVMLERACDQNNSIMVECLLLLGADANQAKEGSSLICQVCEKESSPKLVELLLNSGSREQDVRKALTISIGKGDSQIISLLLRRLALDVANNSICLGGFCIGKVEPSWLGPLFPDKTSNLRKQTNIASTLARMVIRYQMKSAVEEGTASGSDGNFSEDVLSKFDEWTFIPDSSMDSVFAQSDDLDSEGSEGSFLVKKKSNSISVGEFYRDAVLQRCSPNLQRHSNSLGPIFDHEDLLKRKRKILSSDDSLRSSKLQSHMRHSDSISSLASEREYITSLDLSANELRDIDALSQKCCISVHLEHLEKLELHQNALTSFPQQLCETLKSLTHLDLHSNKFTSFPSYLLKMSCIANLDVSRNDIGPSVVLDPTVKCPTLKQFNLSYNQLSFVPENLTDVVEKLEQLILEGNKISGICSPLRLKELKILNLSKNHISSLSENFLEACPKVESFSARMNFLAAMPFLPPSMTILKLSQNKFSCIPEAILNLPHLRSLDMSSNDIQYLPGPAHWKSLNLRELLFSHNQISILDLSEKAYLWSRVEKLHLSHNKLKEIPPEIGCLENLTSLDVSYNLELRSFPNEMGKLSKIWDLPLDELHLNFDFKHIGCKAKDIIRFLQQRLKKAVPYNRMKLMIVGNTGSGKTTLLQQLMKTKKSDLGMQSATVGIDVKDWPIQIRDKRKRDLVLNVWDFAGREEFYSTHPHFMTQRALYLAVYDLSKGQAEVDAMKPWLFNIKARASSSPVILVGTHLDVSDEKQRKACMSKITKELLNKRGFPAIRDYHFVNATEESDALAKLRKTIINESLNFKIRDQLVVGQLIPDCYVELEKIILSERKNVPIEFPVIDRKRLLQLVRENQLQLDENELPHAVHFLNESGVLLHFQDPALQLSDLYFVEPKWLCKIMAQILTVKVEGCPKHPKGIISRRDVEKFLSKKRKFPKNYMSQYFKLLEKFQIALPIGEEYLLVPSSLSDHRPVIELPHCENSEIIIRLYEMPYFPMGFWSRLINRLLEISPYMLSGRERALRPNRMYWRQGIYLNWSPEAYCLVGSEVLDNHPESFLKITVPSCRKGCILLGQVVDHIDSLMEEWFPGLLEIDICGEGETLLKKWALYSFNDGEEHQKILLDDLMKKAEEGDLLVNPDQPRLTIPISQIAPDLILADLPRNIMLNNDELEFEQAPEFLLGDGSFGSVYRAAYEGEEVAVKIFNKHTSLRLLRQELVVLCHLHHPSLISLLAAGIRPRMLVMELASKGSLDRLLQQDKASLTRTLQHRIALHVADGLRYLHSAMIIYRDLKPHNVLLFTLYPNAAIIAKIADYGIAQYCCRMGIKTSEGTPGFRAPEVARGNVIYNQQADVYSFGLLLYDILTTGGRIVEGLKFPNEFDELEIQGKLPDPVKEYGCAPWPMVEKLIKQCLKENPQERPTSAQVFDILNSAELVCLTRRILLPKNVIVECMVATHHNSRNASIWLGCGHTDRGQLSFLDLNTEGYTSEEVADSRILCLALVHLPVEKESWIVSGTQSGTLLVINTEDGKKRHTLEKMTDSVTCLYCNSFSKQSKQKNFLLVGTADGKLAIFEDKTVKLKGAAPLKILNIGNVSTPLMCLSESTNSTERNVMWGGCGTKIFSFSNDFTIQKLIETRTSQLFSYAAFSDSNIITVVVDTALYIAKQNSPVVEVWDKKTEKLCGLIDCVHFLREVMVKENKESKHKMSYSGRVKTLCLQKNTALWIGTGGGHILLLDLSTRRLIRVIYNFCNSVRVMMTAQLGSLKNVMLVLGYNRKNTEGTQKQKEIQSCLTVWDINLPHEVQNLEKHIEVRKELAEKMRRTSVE
UniProt Q5S006: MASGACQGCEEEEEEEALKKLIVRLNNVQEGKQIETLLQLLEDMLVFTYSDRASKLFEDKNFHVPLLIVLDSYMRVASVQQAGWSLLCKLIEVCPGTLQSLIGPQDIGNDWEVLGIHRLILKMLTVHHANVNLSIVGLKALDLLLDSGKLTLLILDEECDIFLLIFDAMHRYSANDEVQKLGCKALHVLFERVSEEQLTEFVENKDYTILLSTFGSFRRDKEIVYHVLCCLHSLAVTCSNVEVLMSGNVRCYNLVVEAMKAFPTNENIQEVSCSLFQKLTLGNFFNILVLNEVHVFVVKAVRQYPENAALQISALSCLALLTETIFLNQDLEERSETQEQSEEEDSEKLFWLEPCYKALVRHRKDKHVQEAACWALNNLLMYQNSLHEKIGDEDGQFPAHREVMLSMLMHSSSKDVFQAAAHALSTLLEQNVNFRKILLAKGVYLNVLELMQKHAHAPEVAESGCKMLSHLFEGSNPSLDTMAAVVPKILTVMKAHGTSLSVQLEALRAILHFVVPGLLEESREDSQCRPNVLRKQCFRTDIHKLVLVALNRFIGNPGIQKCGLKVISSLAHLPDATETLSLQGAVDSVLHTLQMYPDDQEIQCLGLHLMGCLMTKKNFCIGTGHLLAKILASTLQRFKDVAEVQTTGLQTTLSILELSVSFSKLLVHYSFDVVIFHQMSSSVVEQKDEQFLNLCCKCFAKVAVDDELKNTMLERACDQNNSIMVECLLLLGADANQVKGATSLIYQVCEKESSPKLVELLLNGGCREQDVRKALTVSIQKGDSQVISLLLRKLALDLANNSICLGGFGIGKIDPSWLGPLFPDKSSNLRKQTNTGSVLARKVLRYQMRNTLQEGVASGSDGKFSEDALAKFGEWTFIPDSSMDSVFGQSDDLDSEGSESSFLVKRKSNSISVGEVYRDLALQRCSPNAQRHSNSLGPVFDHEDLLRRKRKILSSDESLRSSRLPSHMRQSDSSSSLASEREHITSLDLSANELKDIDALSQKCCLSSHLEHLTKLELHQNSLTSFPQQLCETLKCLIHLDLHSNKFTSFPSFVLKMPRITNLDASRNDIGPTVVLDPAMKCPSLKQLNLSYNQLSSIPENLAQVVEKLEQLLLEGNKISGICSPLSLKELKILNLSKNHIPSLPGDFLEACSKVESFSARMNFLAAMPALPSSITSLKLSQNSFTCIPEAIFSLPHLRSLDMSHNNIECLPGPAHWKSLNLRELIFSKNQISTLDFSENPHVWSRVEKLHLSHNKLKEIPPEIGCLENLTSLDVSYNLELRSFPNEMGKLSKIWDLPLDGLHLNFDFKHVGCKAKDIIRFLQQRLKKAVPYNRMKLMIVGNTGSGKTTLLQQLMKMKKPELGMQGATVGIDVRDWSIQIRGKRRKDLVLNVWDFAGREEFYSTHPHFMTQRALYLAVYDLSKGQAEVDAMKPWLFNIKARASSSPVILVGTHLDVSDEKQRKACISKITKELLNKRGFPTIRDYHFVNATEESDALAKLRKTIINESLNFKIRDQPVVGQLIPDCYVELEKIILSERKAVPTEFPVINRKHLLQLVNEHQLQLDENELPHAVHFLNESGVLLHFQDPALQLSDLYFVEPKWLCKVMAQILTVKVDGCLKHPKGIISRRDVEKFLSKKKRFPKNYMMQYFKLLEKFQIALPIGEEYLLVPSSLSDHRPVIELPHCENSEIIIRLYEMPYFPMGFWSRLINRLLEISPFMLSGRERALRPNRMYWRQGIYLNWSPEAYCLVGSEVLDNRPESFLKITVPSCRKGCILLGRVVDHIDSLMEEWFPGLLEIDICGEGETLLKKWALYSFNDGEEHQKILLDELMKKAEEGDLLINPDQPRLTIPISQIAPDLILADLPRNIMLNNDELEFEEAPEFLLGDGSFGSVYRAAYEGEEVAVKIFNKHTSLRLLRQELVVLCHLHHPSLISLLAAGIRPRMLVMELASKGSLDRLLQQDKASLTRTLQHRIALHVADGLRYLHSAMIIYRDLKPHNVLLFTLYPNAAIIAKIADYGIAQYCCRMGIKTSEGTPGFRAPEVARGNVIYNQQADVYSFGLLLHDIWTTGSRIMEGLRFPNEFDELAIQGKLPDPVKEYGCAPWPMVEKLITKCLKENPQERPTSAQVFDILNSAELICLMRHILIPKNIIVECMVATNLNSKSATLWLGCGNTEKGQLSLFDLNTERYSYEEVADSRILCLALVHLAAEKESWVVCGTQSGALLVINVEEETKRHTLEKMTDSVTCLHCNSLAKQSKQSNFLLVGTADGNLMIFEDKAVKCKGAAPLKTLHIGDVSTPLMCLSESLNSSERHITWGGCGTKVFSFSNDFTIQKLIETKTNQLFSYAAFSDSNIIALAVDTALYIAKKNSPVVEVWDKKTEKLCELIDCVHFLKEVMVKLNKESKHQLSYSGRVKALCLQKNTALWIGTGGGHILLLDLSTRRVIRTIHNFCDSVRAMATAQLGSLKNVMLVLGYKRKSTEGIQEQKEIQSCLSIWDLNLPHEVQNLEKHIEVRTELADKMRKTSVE

Experiments:
[1] = target: T1, Rit2 (small GTPase Rit2), human, overexpressed in SH-SY5Y cell lines (human) (UniProt Q99578); experiment: proximity ligation; Duolink PLA for Rit2 and total LRRK2 in fixed SH-SY5Y cell lines stably overexpressing WT- or G2019S-LRRK2
T1 sequence: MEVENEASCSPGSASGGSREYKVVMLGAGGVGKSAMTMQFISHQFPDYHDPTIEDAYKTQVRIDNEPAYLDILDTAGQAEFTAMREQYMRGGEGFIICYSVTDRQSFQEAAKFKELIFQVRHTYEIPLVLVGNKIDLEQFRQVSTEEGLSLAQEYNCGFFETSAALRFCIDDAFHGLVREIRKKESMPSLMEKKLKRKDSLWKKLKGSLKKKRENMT

[2] = target: T2, Rit2, human, transiently expressed in HEK293T cells (human) (UniProt Q99578); experiment: proximity ligation; Duolink PLA for Rit2 and total LRRK2 in fixed HEK293T cells with transient, stoichiometrically comparable expression of Rit2 and LRRK2 (WT or G2019S)
T2 sequence: T1 sequence

[3] = target: T3, Rit2, endogenous, mouse brain (mouse (endogenous in mouse brain)) (UniProt P70425); experiment: co-IP; mouse brain lysate (midbrain and striatum pooled); anti-Rit2 antibody (Origene TA501701) or same species IgG as control, overnight at 4 °C, protein A/G magnetic beads; 50 mM Tris-HCl pH 7.6, 150 mM NaCl, 1% IGEPAL CA-630, 0.1% SDS; blot for LRRK2
T3 sequence: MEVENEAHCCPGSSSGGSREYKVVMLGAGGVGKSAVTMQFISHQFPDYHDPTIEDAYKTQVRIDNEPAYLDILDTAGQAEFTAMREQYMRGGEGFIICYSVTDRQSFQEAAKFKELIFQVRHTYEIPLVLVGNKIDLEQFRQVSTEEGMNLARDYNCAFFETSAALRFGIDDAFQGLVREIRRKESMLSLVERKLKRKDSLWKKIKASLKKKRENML

binding [2] | Substance | also measured
 | WT-LRRK2 (leucine-rich repeat kinase 2), stably overexpressed in SH-SY5Y cells (from UniProt Q5S007 1-2527) | binding [1]: binds
binds | 2xMyc-LRRK2 WT, transiently expressed in HEK293T cells (from UniProt Q5S007 1-2527) | 
binds | 2xMyc-LRRK2 G2019S, transiently expressed in HEK293T cells (from UniProt Q5S007 1-2527) | 
 | LRRK2, endogenous, mouse brain (from UniProt Q5S006 1-2527) | binding [3]: binds
